According to PMC2427183:
These are yes or no findings as the source states them, for the method shown. Binding seen in cells or lysates may run through a third protein. A result given as binding can be weak or reduced; the word gives no strength. Where a sequence is shown, tags or fusion partners need not be part of it.

Target: T1, GST-XopA (X. campestris pv. vesicatoria) (UniProt B0RX62)
T1 sequence: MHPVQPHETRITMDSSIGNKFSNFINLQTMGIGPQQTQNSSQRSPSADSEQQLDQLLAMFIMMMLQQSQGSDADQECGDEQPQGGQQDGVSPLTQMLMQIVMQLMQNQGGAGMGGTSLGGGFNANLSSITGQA
Experiment: pull-down; GST or GST fusion protein from E. coli immobilized on glutathione sepharose, incubated with an E. coli lysate containing the c-Myc epitope-tagged partner; elution with 10 mM reduced glutathione; immunoblot with anti-c-Myc and anti-GST antibodies; only the target purified

Substance	binding
C-terminal cleavage product of HrcU-c-Myc (X. campestris pv. vesicatoria) (domain or fragment)	no binding
HpaC_(1–182)-c-Myc (X. campestris pv. vesicatoria) (domain or fragment)	binds
